Experimental findings from article PMC7020344 are described below.

The chains behind the UniProt entries cited, without tags or fusion partners.
UniProt P40763: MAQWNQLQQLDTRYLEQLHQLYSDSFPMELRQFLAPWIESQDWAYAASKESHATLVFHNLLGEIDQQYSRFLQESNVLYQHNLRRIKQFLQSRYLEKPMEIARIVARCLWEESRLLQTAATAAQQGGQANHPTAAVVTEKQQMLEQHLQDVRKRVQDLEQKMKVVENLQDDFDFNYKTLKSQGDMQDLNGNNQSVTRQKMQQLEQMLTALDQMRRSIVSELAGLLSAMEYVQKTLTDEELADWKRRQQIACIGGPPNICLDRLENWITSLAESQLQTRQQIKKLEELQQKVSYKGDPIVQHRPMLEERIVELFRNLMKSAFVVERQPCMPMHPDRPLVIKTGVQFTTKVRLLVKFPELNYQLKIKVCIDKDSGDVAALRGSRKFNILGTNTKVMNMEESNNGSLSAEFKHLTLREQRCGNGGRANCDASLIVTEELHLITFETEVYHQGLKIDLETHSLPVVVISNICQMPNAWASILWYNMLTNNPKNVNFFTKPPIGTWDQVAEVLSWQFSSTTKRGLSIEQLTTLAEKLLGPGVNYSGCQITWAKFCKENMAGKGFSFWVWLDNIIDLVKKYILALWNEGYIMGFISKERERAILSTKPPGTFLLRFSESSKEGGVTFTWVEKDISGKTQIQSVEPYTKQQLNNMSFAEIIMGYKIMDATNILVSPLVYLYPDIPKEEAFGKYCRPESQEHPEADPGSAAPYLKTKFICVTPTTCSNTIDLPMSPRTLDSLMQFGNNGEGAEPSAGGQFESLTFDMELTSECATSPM

This experiment has as its target T1, Eukaryotic elongation factor-2 kinase (human (endogenous in A549)) (UniProt O00418).
T1 sequence: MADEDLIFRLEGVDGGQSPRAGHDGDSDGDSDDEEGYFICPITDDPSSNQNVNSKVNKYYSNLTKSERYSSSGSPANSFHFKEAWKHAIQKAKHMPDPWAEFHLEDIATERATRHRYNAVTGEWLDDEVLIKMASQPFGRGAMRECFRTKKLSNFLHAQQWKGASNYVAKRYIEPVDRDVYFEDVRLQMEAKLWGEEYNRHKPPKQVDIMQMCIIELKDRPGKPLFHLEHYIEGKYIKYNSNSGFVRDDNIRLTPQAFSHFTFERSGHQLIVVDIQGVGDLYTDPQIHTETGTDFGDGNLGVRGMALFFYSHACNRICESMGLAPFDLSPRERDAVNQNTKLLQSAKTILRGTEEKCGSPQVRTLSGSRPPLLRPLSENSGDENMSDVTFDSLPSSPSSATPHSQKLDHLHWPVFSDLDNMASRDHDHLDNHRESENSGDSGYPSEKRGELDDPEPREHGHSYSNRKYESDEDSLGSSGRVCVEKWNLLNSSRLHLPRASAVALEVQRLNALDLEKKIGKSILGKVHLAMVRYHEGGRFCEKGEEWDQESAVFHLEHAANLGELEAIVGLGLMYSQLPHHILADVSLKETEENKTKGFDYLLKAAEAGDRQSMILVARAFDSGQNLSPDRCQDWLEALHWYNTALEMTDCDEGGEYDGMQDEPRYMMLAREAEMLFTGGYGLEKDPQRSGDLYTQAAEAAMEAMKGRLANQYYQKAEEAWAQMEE
The experiment is described as follows: co-IP; A549 cell lysates incubated overnight at 4 °C with eEF2K antibody (Santa Cruz, sc-393,366), protein A/G agarose; washed with 50 mM Tris pH 7.5, 150 mM NaCl, 1% Triton-X; immunoblot.

Results are given in words; binding and its absence hold for the method and conditions named. In cells and extracts the contact can be indirect. Some results given as binding are weak or reduced against the parent protein; the word gives no strength.

In the case of “signal transducer and activator of transcription 3 (from UniProt P40763 1-770)”, the binding result is reported as “binds”.
